Reference: the supplement of paper PMC6078165

Tested on: BT20
Assay: relative JC-1 red fluorescence (viability) vs pre-drug, coculture with fibroblast (fraction); higher = more viable cancer cells
Protocol: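 JC-1 labelled TNBC cells cocultured 1:1 (1,500 cells each) with CellTrace Violet stained primary or stromal fibroblasts in 384-well plates in FluoroBrite medium, treated with one of 42 anticancer drugs at 0.1, 1, 10 or 100 uM. JC-1 red fluorescence (mitochondrial integrity in cancer cells only) was read by plate reader every 8 h for 72 h. Values are normalised to each well's pre-drug value. The stock of one drug was tenfold lower, so its dose labels may be too high.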

CC(C)C[C@H](NC(=O)[C@@H](COC(C)(C)C)NC(=O)[C@H](Cc1ccc(O)cc1)NC(=O)[C@H](CO)NC(=O)[C@H](Cc1c[nH]c2ccccc12)NC(=O)[C@H](Cc1cnc[nH]1)NC(=O)[C@@H]1CCC(=O)N1)C(=O)N[C@@H](CCCNC(=N)N)C(=O)N1CCC[C@H]1C(=O)NNC(N)=O [Goserelin]
relative JC-1 red fluorescence
Conditions | 8 h | 16 h | 24 h | 32 h | 40 h | 48 h | 56 h | 64 h | 72 h
10 µM, coculture fibroblast: C12385 | 0.907 ± 0.012 | 0.7941 ± 0.0015 | 0.758 ± 0.008 | 0.695 ± 0.017 | 0.636 ± 0.029 | 0.603 ± 0.024 | 0.567 ± 0.016 | 0.538 ± 0.019 | 0.52 ± 0.017
10 µM, coculture fibroblast: H6013 | 0.9328 ± 0.0085 | 0.899 ± 0.0061 | 0.874 ± 0.036 | 0.839 ± 0.027 | 0.795 ± 0.032 | 0.773 ± 0.022 | 0.775 ± 0.028 | 0.757 ± 0.033 | 0.742 ± 0.025
10 µM, coculture fibroblast: H6019 | 0.868 ± 0.017 | 0.818 ± 0.0099 | 0.79 ± 0.016 | 0.73 ± 0.014 | 0.6859 ± 0.0048 | 0.6652 ± 0.0012 | 0.637 ± 0.007 | 0.608 ± 0.012 | 0.585 ± 0.016
10 µM, coculture fibroblast: H6076 | 0.934 ± 0.082 | 0.934 ± 0.054 | 0.876 ± 0.093 | 0.842 ± 0.097 | 0.822 ± 0.13 | 0.812 ± 0.14 | 0.808 ± 0.16 | 0.807 ± 0.18 | 0.796 ± 0.19
10 µM, coculture fibroblast: H6231 | 0.828 ± 0.074 | 0.904 ± 0.017 | 0.8275 ± 0.0046 | 0.766 ± 0.01 | 0.734 ± 0.0097 | 0.683 ± 0.0099 | 0.649 ± 0.0099 | 0.622 ± 0.0088 | 0.596 ± 0.012
10 µM, coculture fibroblast: HADF | 0.915 ± 0.11 | 0.883 ± 0.03 | 0.841 ± 0.078 | 0.797 ± 0.075 | 0.755 ± 0.063 | 0.721 ± 0.056 | 0.716 ± 0.044 | 0.699 ± 0.037 | 0.664 ± 0.04
10 µM, coculture fibroblast: HCFa | 0.8904 ± 0.0031 | 0.845 ± 0.021 | 0.834 ± 0.044 | 0.766 ± 0.042 | 0.715 ± 0.037 | 0.676 ± 0.043 | 0.656 ± 0.051 | 0.642 ± 0.048 | 0.608 ± 0.052
10 µM, coculture fibroblast: HCPF | 0.842 ± 0.12 | 0.896 ± 0.028 | 0.834 ± 0.021 | 0.782 ± 0.034 | 0.739 ± 0.057 | 0.682 ± 0.062 | 0.643 ± 0.073 | 0.631 ± 0.077 | 0.587 ± 0.079
10 µM, coculture fibroblast: HHSteC | 0.929 ± 0.011 | 0.862 ± 0.014 | 0.876 ± 0.05 | 0.821 ± 0.067 | 0.786 ± 0.077 | 0.752 ± 0.088 | 0.735 ± 0.1 | 0.711 ± 0.12 | 0.681 ± 0.13
10 µM, coculture fibroblast: HMF | 0.768 ± 0.11 | 0.933 ± 0.029 | 0.861 ± 0.094 | 0.816 ± 0.14 | 0.788 ± 0.18 | 0.753 ± 0.2 | 0.731 ± 0.23 | 0.706 ± 0.24 | 0.678 ± 0.25
10 µM, coculture fibroblast: HPFa | 0.862 ± 0.19 | 0.911 ± 0.046 | 0.91 ± 0.056 | 0.814 ± 0.037 | 0.761 ± 0.047 | 0.702 ± 0.05 | 0.661 ± 0.056 | 0.614 ± 0.059 | 0.55 ± 0.067
10 µM, coculture fibroblast: HUF | 0.9385 ± 0.0011 | 0.85 ± 0.018 | 0.848 ± 0.029 | 0.784 ± 0.038 | 0.758 ± 0.036 | 0.724 ± 0.027 | 0.721 ± 0.033 | 0.708 ± 0.028 | 0.695 ± 0.029
10 µM, coculture fibroblast: Hs5 | 0.85 ± 0.18 | 0.899 ± 0.061 | 0.818 ± 0.066 | 0.759 ± 0.069 | 0.711 ± 0.081 | 0.663 ± 0.077 | 0.627 ± 0.072 | 0.586 ± 0.069 | 0.559 ± 0.07
10 µM, coculture fibroblast: Hs27A | 0.778 ± 0.085 | 0.797 ± 0.062 | 0.941 ± 0.02 | 0.928 ± 0.028 | 0.877 ± 0.033 | 0.851 ± 0.021 | 0.825 ± 0.023 | 0.792 ± 0.041 | 0.73 ± 0.043
10 µM, coculture fibroblast: Hs343T | 0.802 ± 0.039 | 0.9521 ± 0.0094 | 0.852 ± 0.021 | 0.804 ± 0.027 | 0.729 ± 0.021 | 0.669 ± 0.011 | 0.5959 ± 0.0014 | 0.5596 ± 0.0042 | 0.509 ± 0.0053
10 µM, coculture fibroblast: WS1 | 0.859 ± 0.0095 | 0.764 ± 0.0095 | 0.7005 ± 0.0056 | 0.625 ± 0.0063 | 0.548 ± 0.015 | 0.516 ± 0.017 | 0.476 ± 0.019 | 0.441 ± 0.024 | 0.411 ± 0.029
100 µM, coculture fibroblast: C12385 | 0.90411 ± 3.9e-05 | 0.827 ± 0.038 | 0.789 ± 0.0031 | 0.7319 ± 0.0067 | 0.676 ± 0.0074 | 0.646 ± 0.0093 | 0.612 ± 0.0077 | 0.589 ± 0.011 | 0.569 ± 0.0076
100 µM, coculture fibroblast: H6013 | 0.974 ± 0.025 | 0.905 ± 0.022 | 0.8862 ± 0.0053 | 0.866 ± 0.027 | 0.8208 ± 0.0043 | 0.797 ± 0.014 | 0.783 ± 0.04 | 0.754 ± 0.06 | 0.73 ± 0.081
100 µM, coculture fibroblast: H6019 | 0.895 ± 0.034 | 0.862 ± 0.047 | 0.862 ± 0.075 | 0.819 ± 0.07 | 0.775 ± 0.082 | 0.757 ± 0.086 | 0.72 ± 0.079 | 0.692 ± 0.074 | 0.66 ± 0.065
100 µM, coculture fibroblast: H6076 | 0.982 ± 0.025 | 0.872 ± 0.041 | 0.836 ± 0.03 | 0.823 ± 0.031 | 0.796 ± 0.033 | 0.783 ± 0.021 | 0.779 ± 0.026 | 0.789 ± 0.024 | 0.776 ± 0.018
100 µM, coculture fibroblast: H6231 | 0.807 ± 0.11 | 0.941 ± 0.012 | 0.822 ± 0.015 | 0.768 ± 0.016 | 0.711 ± 0.014 | 0.666 ± 0.011 | 0.622 ± 0.009 | 0.596 ± 0.014 | 0.562 ± 0.019
100 µM, coculture fibroblast: HADF | 0.9894 ± 0.0094 | 0.898 ± 0.024 | 0.889 ± 0.027 | 0.852 ± 0.027 | 0.823 ± 0.034 | 0.785 ± 0.046 | 0.769 ± 0.044 | 0.755 ± 0.033 | 0.711 ± 0.041
100 µM, coculture fibroblast: HCFa | 0.9514 ± 0.0095 | 0.863 ± 0.022 | 0.849 ± 0.046 | 0.787 ± 0.038 | 0.728 ± 0.042 | 0.69 ± 0.037 | 0.666 ± 0.035 | 0.644 ± 0.042 | 0.601 ± 0.023
100 µM, coculture fibroblast: HCPF | 0.849 ± 0.18 | 0.918 ± 0.051 | 0.846 ± 0.026 | 0.798 ± 0.017 | 0.754 ± 0.008 | 0.714 ± 0.017 | 0.679 ± 0.049 | 0.652 ± 0.052 | 0.609 ± 0.044
100 µM, coculture fibroblast: HHSteC | 0.943 ± 0.023 | 0.877 ± 0.012 | 0.871 ± 0.025 | 0.8 ± 0.014 | 0.753 ± 0.031 | 0.716 ± 0.023 | 0.695 ± 0.033 | 0.67 ± 0.041 | 0.639 ± 0.036
100 µM, coculture fibroblast: HMF | 0.9595 ± 0.0058 | 0.832 ± 0.016 | 0.782 ± 0.022 | 0.731 ± 0.042 | 0.694 ± 0.051 | 0.656 ± 0.05 | 0.627 ± 0.049 | 0.604 ± 0.055 | 0.573 ± 0.059
100 µM, coculture fibroblast: HPFa | 0.944 ± 0.028 | 0.8621 ± 0.003 | 0.8496 ± 0.0016 | 0.754 ± 0.016 | 0.709 ± 0.016 | 0.657 ± 0.02 | 0.62 ± 0.017 | 0.573 ± 0.019 | 0.509 ± 0.014
100 µM, coculture fibroblast: HUF | 0.92706 ± 0.00028 | 0.8649 ± 0.0046 | 0.866 ± 0.015 | 0.789 ± 0.037 | 0.736 ± 0.056 | 0.695 ± 0.057 | 0.682 ± 0.053 | 0.663 ± 0.061 | 0.639 ± 0.062
100 µM, coculture fibroblast: Hs5 | 0.86 ± 0.067 | 0.89 ± 0.049 | 0.825 ± 0.023 | 0.784 ± 0.012 | 0.7567 ± 0.00035 | 0.725 ± 0.017 | 0.693 ± 0.021 | 0.665 ± 0.025 | 0.638 ± 0.024
100 µM, coculture fibroblast: Hs27A | 0.91 ± 0.025 | 0.707 ± 0.022 | 0.846 ± 0.18 | 0.9705 ± 0.0079 | 0.926 ± 0.02 | 0.905 ± 0.026 | 0.872 ± 0.035 | 0.849 ± 0.031 | 0.789 ± 0.032
100 µM, coculture fibroblast: Hs343T | 0.786 ± 0.13 | 0.886 ± 0.023 | 0.826 ± 0.014 | 0.764 ± 0.0089 | 0.715 ± 0.022 | 0.669 ± 0.025 | 0.617 ± 0.018 | 0.578 ± 0.03 | 0.547 ± 0.038
100 µM, coculture fibroblast: WS1 | 0.869 ± 0.017 | 0.779 ± 0.016 | 0.753 ± 0.021 | 0.686 ± 0.04 | 0.624 ± 0.048 | 0.59 ± 0.049 | 0.55 ± 0.06 | 0.526 ± 0.068 | 0.498 ± 0.069

± gives the standard deviation of the averaged measurements. The reference is the same well before dosing, and untreated signal decays as well.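 Labels refer to human fibroblasts, largely primary: uterine (C12385, HUF), lung (H6013), bone (Hs27A), adrenal (HADF), skin (WS1), plus mammary HMF and breast cancer-associated Hs343T. Cancer lines are basal-like or mesenchymal-like triple-negative breast cancer. The paper counts as hits responses shifting over 3x the replicate standard deviation. The tissue of the other fibroblasts is not given here.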
